In patent publication US6750202B1 (priority 1998, dated 2004) one finds step yield data, which are given here for one substance.

A short description of the data set: general procedure: solution-phase peptide synthesis; PyBop, ethyldiisopropylamine. The following applies: coupling step.

On to “(1R)-1-({(2S)-2-{[(Benzyloxy)carbonyl]amino}-6-[(tert-butoxy-carbonyl)amino]hexanoyl}amino)-2-phenylethyl{3-[(2S)-2-({[(1S)-1-(methoxycarbonyl)-3-methylbutyl]amino}carbonyl)tetrahydro-1H-pyrrol-1-yl]-2-methyl-3-oxopropyl}phosphinic acid”, for which the step yield is given as 32.8% of theory.
